The text below walks through data of publication PMC8162347, “Bolaamphiphilic Bis-Dehydropeptide Hydrogels as Potential Drug Release Systems” (Gels, 2021).

The series in a line: Sustained release assay of model cargo from hydrogels. Conditions: 1.5 mL water layered on top, after 6 days, mean of triplicate; for Ciprofloxacin Released (%): ciprofloxacin (0.2 nM) in 1 mL hydrogel, analytical HPLC; for MO Released (%): methyl orange (0.2 nM) in 1 mL hydrogel, absorbance 465 nm; for MB Released (%): methylene blue (0.1 nM) in 1 mL hydrogel, absorbance 666 nm. On the procedure: Hydrogels containing cationic, anionic, or zwitterionic model drugs were prepared using the same conditions described in Section 2.2 but with the water component (1 mL) being replaced by a methylene blue solution, methyl orange solution, or ciprofloxacin solution. In a modified version of the method described by Abraham et al., water was carefully layered on top of the hydrogel surface. Then, the percentage release of model drug was recorded versus time, over 6 days, through UV absorption measurements or by HPLC and then subsequently fitted to a standard calibration curve (Figure S10 in Supplementary Information). The experiments were also assessed visually (Figure 9). […] In the studies involving the release of methyl orange, a clearly visible release of the anionic dye into the layered water solution was observed from the three hydrogels after several days (Figure 9B,D,F centre). The results for the release of methyl orange were also confirmed quantitatively by UV absorption measurements. Hydrogelators 1 and 3, which contain a phenylalanine residue, release nearly 60% of the anionic methyl orange cargo, whereas hydrogel 2, containing a tyrosine residue, released more than 90%. […] Ciprofloxacin was included as an overall neutral cargo. In experiments involving hydrogels of compounds 1–3 containing ciprofloxacin, the amount of ciprofloxacin present in the above water layer was determined by HPLC at various time-points. Hydrogelators 1, 2, and 3 release 32%, 58%, and 20% of their ciprofloxacin cargo, respectively (Table 4) (Figure S11 in Supplementary Information). As observed for methyl orange, the hydrogel that releases the greatest amount of ciprofloxacin is the hydrogel obtained from compound 2 (Table 4, Figure S11 in Supplementary Information).
To quantitatively evaluate the drug release from hydrogels 1–3, several mathematical models were tested to see which one fits the tested hydrogels. The Korsmeyer–Peppas model is the preferred model for polymeric systems. Korsmeyer described a simple relationship that described drug release from a polymeric system that includes both the diffusion and erosion of the polymer chain. The following equation describes the Korsmeyer–Peppas model: Mt/M = Kt^n
Hydrogels of 1, 2, and 3 were prepared as described in Section 4.2 to form 1 mL hydrogels containing the same concentration of the hydrogelators described above and the appropriate cargo (methylene blue ([…]), methyl orange (0.2 nM), or ciprofloxacin (0.2 nM)), in a slightly modified version of the procedure described by Abraham et al.. After allowing to stand overnight, 1.5 mL of water was carefully added to the surface of the hydrogels. Aliquots of the layered solution (100 μL) were removed at 1 h, 2 h, 3 h, 4 h, 6 h, 24 h, 72 h, and 6 days from the time the water was initially layered on top of the hydrogel. After removing each aliquot, the volume water was immediately replaced by an equal volume of water. The concentration of methylene blue or methyl orange in each aliquot was determined by measuring the absorbance at λmax of the dye (666 nm for methylene blue and 465 nm for methyl orange) using a microplate reader and then converting the value to percentage release (using a standard calibration curve). The concentration of ciprofloxacin in each aliquot was determined using analytical HPLC, where the integrated peak area was converted to a percentage release (using a standard calibration curve). Each experiment was performed in triplicate, and the mean percentage cargo release was plotted against time.

Where “and” joins values, the source holds several entries; their conditions need not be identical. Equal entries are not always repeated.

`O=C(O)/C(=C/c1ccccc1)NC(=O)[C@H](Cc1ccccc1)NC(=O)c1ccc(C(=O)N[C@@H](Cc2ccccc2)C(=O)N/C(=C\c2ccccc2)C(=O)O)cc1` [Compound 1]: the “Ciprofloxacin Released (%)” value was 32% and 32.3%; the “MO Released (%)” value is ~60% and 60.9%; the “MB Released (%)” value turned out to be 12.1%.

With `O=C(O)/C(=C/c1ccccc1)NC(=O)[C@H](Cc1ccc(O)cc1)NC(=O)c1ccc(C(=O)N[C@@H](Cc2ccc(O)cc2)C(=O)N/C(=C\c2ccccc2)C(=O)O)cc1` [Compound 2], the “Ciprofloxacin Released (%)” value was 58% and 58.8%; the “MB Released (%)” value came out at 7.63%.

On to `O=C(O)/C(=C/c1ccccc1)NC(=O)[C@H](Cc1ccccc1)NC(=O)c1ccc2cc(C(=O)N[C@@H](Cc3ccccc3)C(=O)N/C(=C\c3ccccc3)C(=O)O)ccc2c1` [Compound 3], for which the “Ciprofloxacin Released (%)” value was 20% and 20.3%; the “MO Released (%)” value was ~60% and 60.3%; the “MB Released (%)” value worked out at 9.55%.
